Data as given in publication doi:10.1101/2021.05.17.443835.
Results are given in words; binding and its absence hold for the method and conditions named. Binding seen in cells or lysates may run through a third protein. These calls come from enrichment with a bait or labelling near it, and not all partners need be listed.

Protein sequences, listed by entry. Tags and fused reporters are not part of them.
UniProt P49023: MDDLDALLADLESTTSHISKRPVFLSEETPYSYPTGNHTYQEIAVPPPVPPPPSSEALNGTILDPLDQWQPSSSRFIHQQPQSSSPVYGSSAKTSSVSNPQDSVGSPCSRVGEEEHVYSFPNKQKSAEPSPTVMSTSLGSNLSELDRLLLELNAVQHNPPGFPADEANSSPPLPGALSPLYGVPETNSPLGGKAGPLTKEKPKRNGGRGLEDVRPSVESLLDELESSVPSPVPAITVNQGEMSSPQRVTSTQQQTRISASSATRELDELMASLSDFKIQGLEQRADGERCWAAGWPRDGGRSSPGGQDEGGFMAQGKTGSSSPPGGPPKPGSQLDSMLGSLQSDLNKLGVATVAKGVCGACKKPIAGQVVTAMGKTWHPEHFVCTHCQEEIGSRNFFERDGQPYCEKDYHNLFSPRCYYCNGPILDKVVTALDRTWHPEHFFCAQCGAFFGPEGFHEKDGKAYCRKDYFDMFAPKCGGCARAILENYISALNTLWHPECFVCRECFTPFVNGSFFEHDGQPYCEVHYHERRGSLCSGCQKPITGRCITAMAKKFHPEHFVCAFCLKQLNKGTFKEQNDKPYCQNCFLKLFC
UniProt Q14155: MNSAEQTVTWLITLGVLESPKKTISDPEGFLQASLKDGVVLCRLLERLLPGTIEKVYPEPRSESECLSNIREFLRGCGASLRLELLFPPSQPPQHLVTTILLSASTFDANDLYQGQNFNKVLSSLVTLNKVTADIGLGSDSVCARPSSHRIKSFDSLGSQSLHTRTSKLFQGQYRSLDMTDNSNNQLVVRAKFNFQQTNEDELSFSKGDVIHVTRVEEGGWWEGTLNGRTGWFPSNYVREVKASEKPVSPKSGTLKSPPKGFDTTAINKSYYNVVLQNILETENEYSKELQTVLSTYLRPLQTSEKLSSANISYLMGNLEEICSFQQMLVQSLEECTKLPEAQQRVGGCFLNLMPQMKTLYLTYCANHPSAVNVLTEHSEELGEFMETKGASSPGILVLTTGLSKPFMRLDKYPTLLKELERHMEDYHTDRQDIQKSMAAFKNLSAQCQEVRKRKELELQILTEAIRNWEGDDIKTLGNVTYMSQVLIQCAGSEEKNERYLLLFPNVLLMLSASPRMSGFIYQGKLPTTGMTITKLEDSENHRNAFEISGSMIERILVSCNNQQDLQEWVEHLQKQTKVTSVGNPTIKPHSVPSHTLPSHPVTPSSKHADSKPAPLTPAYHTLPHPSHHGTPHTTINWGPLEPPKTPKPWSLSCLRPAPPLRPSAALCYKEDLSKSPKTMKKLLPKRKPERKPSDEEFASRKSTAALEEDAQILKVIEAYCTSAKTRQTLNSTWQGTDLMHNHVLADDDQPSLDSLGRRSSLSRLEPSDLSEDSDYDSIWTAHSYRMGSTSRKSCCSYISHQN
UniProt Q9Y2X7: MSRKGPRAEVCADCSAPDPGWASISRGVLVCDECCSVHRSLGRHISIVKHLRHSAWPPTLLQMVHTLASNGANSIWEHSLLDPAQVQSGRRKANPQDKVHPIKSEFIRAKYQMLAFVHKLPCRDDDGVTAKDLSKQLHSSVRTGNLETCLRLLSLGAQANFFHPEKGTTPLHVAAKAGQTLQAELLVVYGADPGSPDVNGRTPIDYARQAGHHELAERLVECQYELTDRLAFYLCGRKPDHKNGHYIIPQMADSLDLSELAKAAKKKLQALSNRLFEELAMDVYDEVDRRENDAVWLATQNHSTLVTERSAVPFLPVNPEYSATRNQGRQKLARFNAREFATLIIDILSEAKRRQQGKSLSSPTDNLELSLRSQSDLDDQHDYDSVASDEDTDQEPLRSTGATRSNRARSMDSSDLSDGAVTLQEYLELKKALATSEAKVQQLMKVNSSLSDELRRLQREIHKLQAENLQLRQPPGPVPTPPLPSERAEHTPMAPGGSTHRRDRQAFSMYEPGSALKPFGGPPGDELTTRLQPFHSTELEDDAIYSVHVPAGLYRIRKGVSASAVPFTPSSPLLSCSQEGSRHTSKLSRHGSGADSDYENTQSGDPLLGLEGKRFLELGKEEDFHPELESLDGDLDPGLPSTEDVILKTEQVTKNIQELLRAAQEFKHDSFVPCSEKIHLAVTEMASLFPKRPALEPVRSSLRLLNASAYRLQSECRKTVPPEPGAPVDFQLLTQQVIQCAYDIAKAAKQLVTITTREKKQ
UniProt Q14160: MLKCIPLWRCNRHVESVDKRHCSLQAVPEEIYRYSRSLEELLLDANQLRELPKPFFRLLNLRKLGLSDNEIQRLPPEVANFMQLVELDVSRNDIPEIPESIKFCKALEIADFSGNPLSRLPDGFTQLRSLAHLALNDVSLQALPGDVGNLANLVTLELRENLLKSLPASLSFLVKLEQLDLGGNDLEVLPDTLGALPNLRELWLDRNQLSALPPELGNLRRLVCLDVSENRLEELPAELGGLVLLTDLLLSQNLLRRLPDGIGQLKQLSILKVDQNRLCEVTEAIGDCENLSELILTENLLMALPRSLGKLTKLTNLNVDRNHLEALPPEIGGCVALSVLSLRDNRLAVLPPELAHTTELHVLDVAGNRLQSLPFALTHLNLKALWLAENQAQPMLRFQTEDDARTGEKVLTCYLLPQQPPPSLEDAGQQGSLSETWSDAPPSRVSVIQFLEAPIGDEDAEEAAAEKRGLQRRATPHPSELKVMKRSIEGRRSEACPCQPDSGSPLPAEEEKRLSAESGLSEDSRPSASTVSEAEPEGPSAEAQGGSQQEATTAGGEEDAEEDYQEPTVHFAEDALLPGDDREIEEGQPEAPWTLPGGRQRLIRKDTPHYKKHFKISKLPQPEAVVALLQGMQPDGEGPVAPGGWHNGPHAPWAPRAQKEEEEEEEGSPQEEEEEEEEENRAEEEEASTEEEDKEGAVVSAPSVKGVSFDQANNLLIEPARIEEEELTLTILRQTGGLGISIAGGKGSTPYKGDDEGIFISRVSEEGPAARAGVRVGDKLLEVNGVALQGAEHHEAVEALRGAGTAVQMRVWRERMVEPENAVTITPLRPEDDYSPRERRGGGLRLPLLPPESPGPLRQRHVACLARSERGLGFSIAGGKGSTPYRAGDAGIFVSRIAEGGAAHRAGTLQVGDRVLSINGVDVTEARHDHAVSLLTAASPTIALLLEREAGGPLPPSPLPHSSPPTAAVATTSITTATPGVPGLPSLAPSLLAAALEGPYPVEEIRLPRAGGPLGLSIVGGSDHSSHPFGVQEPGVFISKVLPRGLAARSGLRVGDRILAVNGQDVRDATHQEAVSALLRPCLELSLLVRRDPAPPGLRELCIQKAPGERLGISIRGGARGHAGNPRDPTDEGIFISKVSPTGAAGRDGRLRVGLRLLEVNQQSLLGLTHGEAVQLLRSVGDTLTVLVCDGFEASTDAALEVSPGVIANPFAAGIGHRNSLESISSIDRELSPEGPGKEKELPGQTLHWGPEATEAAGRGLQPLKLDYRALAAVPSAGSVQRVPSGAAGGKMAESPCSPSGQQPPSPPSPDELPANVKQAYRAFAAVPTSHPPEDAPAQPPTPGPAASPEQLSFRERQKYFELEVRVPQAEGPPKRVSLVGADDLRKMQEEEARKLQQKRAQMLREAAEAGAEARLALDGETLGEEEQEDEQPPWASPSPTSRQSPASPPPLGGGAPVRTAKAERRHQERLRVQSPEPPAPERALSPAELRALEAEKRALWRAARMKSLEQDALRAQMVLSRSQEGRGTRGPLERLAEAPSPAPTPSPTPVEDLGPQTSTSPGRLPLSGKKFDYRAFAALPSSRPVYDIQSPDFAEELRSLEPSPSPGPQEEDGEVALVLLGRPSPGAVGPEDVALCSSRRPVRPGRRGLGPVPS

B1: GIT2 (protein, UniProt Q14161 1-759)
chain: MSKRLRSSEVCADCSGPDPSWASVNRGTFLCDECCSVHRSLGRHISQVRHLKHTPWPPTLLQMVETLYNNGANSIWEHSLLDPASIMSGRRKANPQDKVHPNKAEFIRAKYQMLAFVHRLPCRDDDSVTAKDLSKQLHSSVRTGNLETCLRLLSLGAQANFFHPEKGNTPLHVASKAGQILQAELLAVYGADPGTQDSSGKTPVDYARQGGHHELAERLVEIQYELTDRLAFYLCGRKPDHKNGQHFIIPQMADSSLDLSELAKAAKKKLQSLSNHLFEELAMDVYDEVDRRETDAVWLATQNHSALVTETTVVPFLPVNPEYSSTRNQGRQKLARFNAHEFATLVIDILSDAKRRQQGSSLSGSKDNVELILKTINNQHSVESQDNDQPDYDSVASDEDTDLETTASKTNRQKSLDSDLSDGPVTVQEFMEVKNALVASEAKIQQLMKVNNNLSDELRIMQKKLQTLQSENSNLRKQATTNVYQVQTGSEYTDTSNHSSLKRRPSARGSRPMSMYETGSGQKPYLPMGEASRPEESRMRLQPFPAHIGRSALVTSSSSLPSFPSTLSWSRDESARRASRLEKQNSTPESDYDNTPNDMEPDGMGSSRKGRQRSMVWPGDGLVPDTAEPHVAPSPTLPSTEDVIRKTEQITKNIQELLRAAQENKHDSYIPCSERIHVAVTEMAALFPKKPKSDMVRTSLRLLTSSAYRLQSECKKTLPGDPGSPTDVQLVTQQVIQCAYDIAKAAKQLVTITTKENNN

What was measured:
myc-BioID2-Paxillin = myc-BioID2-Paxillin (UniProt P49023); experiment: proximity labelling
BioID-βPix = BioID-βPix (UniProt Q14155); experiment: proximity labelling

binding (myc-BioID2-Paxillin)	binding (BioID-βPix)	Molecule
binds	–	ARHGEF7 (also known as βPix) (from UniProt Q14155 1-803)
binds	–	GIT1 (from UniProt Q9Y2X7 1-761)
–	binds	SCRIB (from UniProt Q14160 1-1655)
binds	–	B1
